Experimental data taken from the supplement of paper PMC12889115.
Some of the results follow. These are raw signals, not scaled to a control.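 In the initial screen, polymyxin B was used at a concentration that permeabilizes Salmonella's outer membrane but not its inner membrane. Maximum growth was set by DMSO wells with or without polymyxin B. Since plates varied, data were ranked per plate, and compounds giving the lowest OD600 advanced as hits.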

System: Salmonella enterica serovar Typhimurium SL1344
Assay: bacterial growth OD600 after 18 h with compound and polymyxin B; higher = more bacterial growth (less inhibition)
Settings: 50 µM, Mueller-Hinton broth

Row | Compound | bacterial growth OD600 (polymyxin B 0.75 µg/mL) | bacterial growth OD600 (polymyxin B 1 µg/mL)
1 | COCCN(C)c1ccc(-c2nc(-c3cccc(Cl)c3)no2)cn1 | 0.624 | 
2 | CC(=O)N1CCC(C(=O)NCc2cccnc2N(C)C2CCCCC2)CC1 |  | 0.89
3 | COc1cccc(CC(C2CCN(C(=O)c3ccc(F)cc3)CC2)N(C)C(=O)c2ccsc2)c1 (stereo unspecified) | 0.746 | 
4 | O=C(C1CC1)N1CCC(Oc2ccc(C(=O)N3CCC[C@H]3CO)cc2)CC1 |  | 0.877
5 | CCOC(=O)C1(CCOc2ccccc2)CCN(C(=O)NC2CCS(=O)(=O)C2)CC1 (stereo unspecified) |  | 0.974
6 | CCn1ccnc1CN1CCCC(CNC(=O)c2cc(OC)cc(OC)c2)C1 (stereo unspecified) |  | 0.928
7 | COc1ccc(OC2CCN(C3CCCC3)CC2)c(C(=O)N2CCN(C)C(=O)[C@@H]2C)c1 |  | 0.924
8 | O=C(CCn1nnnc1CN1CCOCC1)N1CCN(C2CCCC2)C(=O)C1 | 0.786 | 
9 | O=C(NCCN1Cc2ccccc2OC(c2ccsc2)C1)c1cccc(N2CCNC2=O)c1 (stereo unspecified) | 0.688 | 
10 | COc1cc(NC(=O)CCC2CCCN(C(=O)c3scnc3C)C2)cc(OC)c1 (stereo unspecified) |  | 1.04
11 | O=C1CCC(CCNCCOc2ccc(F)cc2)N1CCCc1ccncc1 (stereo unspecified) | 0.779 | 
12 | Cn1nccc1C(=O)N1CCC2(CCCN(Cc3cccc(F)c3F)C2=O)C1 (stereo unspecified) |  | 0.59
13 | O=C(c1coc(COc2ccc(F)cc2Cl)n1)N1CCC(O)CC1 |  | 0.896
14 | CCOC(=O)C1(Cc2ccccc2F)CCCN(Cc2cnc(SC)nc2)C1 (stereo unspecified) |  | 0.965
15 | CSc1ccccc1C(=O)NCc1c(C)ncc2c1CCN(C(=O)c1ccc(OC(C)C)cc1)C2 | 0.802 | 
16 | COCCN1CC(C(=O)NCc2cccc(C)n2)CCC1=O (stereo unspecified) |  | 0.966

Row | Compound | bacterial growth OD600 (polymyxin B 0.75 µg/mL) | bacterial growth OD600 (polymyxin B 1 µg/mL)
17 | CCc1nc(CNC(=O)C2CCC(=O)N(CCN3CCOCC3)C2)cs1 (stereo unspecified) |  | 0.906
18 | O=C(NC1CCCc2c1cnn2-c1ccccc1F)C1=CCCC1 (stereo unspecified) |  | 1.13
19 | CCC(=O)N1CCC2(CC1)c1ccccc1[C@@H](NC(=O)c1ccccc1OC)[C@@H]2OC | 0.855 | 
20 | COCc1ccc(C(=O)Nc2ccc(-c3nc(CNC(=O)Cc4ccc(F)cc4)c(C)o3)cc2)o1 | 0.846 | 
21 | CC1CCN(C(=O)c2coc(COc3cccc(C(F)(F)F)c3)n2)CC1 |  | 0.026
22 | COc1cc(CN(C(=O)Cc2csc(-c3ccccc3)n2)[C@H]2CCCCNC2=O)ccc1OCCc1scnc1C | 0.57 | 
23 | CCn1c(-c2cccnc2)nc2cc(NC(=O)COC)cc(C(=O)NCCc3ccc(F)cc3)c21 | 0.745 | 
24 | COc1ncccc1C(=O)NC1CC(=O)N(CCc2cccc(Cl)c2)C1 (stereo unspecified) |  | 0.929
25 | COc1ccccc1OC1CCN(C(=O)Cn2cc(NC(=O)COc3ccccc3)cn2)CC1 | 0.813 | 
26 | Cc1nccn1-c1ccc(NC(=O)C2CCCN(Cc3ccc4nonc4c3)C2)cc1 (stereo unspecified) |  | 0.807
27 | CCOC(=O)C1(CC2CC2)CCN(C(=O)CCc2nc3cc(F)ccc3[nH]2)CC1 | 0.669 | 
28 | Cc1cc(Cl)c2oc(C(=O)NCC(C)(C)N3CCOCC3)c(C)c2c1 |  | 0.968
29 | COc1cccc(CNC(=O)CCC2CCCN(C(=O)c3[nH]nc4c3CCCC4)C2)c1 (stereo unspecified) |  | 1.38
30 | CC(C)(C)CN1CCC(N2CCC(C(=O)NCc3cccnc3)CC2)CC1 |  | 1.07
31 | COc1ccc(OC2CCN(C(C)=O)CC2)c(C(=O)N(C)CC(O)c2ccccc2)c1 (stereo unspecified) |  | 1.26

Record cards, as listed above:
COc1cc(NC(=O)CCC2CCCN(C(=O)c3scnc3C)C2)cc(OC)c1 (stereo unspecified) is entered as bacterial growth OD600 (polymyxin B 1 µg/mL): 1.04
COc1cccc(CNC(=O)CCC2CCCN(C(=O)c3[nH]nc4c3CCCC4)C2)c1 (stereo unspecified) is entered as bacterial growth OD600 (polymyxin B 1 µg/mL): 1.38
